{"sequences": {"note": "The chains behind the UniProt entries cited, without tags or fusion partners.", "UniProt P00406, whole entry": "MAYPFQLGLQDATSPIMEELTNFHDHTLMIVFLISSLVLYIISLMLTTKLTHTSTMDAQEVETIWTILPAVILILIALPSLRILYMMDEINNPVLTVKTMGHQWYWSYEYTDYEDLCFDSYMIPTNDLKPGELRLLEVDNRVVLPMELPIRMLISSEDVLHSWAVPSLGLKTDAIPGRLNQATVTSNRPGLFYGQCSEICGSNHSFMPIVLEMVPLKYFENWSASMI", "UniProt P05505, whole entry": "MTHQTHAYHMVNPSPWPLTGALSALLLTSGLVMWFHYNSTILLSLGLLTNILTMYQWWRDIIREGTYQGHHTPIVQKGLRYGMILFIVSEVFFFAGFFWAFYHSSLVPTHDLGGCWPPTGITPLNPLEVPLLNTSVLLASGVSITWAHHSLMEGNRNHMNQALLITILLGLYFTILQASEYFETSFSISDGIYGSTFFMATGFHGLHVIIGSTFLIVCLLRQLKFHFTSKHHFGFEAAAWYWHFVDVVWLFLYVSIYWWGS"}, "source": "patent US20030050283A1", "about": "“Composition for the treatment and/or prevention of macular degeneration, method for its manufacture, and its use for treating the eye” (priority 2001, published 2003)", "molecular_target": "COX (Rattus norvegicus, UniProt P00406+P05503+P05505)", "experiment": "Binding of [3H]-A2E to COX by co-precipitation", "conditions": "20 min", "note": "Some entries of the source have several records that differ or are many. The list is limited to them. The source may hold further records. The records of an entry appear to be repeats on other runs, samples or individuals."}
{"molecule": "CC1=C(/C=C/C(C)=C/C=C/C(C)=C/c2cc(/C=C/C=C(C)/C=C/C3=C(C)CCCC3(C)C)cc[n+]2CCO)C(C)(C)CCC1", "note": "[A2E, N-retinyl-N-retinylidene ethanolamine]", "values": [{"measurement": "Molecules A2E/molecules protein", "setting": "COX + CL, darkness", "result": "1 and 1.1 +/− 1.3 (n = 3)"}, {"measurement": "Molecules A2E/molecules protein", "setting": "COX, darkness, [3H]-A2E 40 μM", "result": "17 and 17.0 +/− 0.5 (n = 4)"}, {"measurement": "Molecules A2E/molecules protein", "setting": "COX, exposure to light, [3H]-A2E 40 μM", "result": "13 and 12,8 +/− 4,7 (n = 4)"}]}
